Results: PMC4979479
Results are given in words; binding and its absence hold for the method and conditions named. Binding seen in cells or lysates may run through a third protein. Some entries that bind do so weakly or less than the wild type.

Protein sequences, listed by entry. Tags and fused reporters are not part of them.
UniProt Q9UBF6: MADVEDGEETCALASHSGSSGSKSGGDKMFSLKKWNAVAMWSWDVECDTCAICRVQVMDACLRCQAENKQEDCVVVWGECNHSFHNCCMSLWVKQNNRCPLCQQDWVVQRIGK

Legend:
[1] = molecular target: T1, SARM (sterile α and HEAT/armadillo-motif-containing protein) (human (endogenous in primary liver tissue)) (UniProt Q6SZW1); assay: co-IP; human primary HCC and paired normal liver tissue lysates in RIPA buffer, precleared with protein G Sepharose; incubated overnight at 4 °C with Noxa or SARM antibody, then protein G Sepharose 3 h; immunoblot for SAG
T1 sequence: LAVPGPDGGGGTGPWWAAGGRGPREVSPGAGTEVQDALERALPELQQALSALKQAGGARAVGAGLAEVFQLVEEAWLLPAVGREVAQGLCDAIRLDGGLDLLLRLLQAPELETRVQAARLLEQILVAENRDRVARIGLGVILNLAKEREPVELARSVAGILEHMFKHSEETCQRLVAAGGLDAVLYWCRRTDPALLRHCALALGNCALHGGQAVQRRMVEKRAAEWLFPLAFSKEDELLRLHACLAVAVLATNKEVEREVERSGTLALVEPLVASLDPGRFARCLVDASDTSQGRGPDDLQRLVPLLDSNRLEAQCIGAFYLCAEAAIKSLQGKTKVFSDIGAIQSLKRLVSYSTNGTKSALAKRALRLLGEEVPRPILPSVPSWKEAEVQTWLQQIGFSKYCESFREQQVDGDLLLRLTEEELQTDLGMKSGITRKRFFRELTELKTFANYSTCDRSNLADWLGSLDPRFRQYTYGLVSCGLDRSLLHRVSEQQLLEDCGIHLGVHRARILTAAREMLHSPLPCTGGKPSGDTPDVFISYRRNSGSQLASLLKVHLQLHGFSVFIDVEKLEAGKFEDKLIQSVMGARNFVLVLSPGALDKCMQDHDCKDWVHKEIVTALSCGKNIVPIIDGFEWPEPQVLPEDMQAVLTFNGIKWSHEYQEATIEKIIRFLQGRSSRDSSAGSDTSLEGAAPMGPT

[2] = molecular target: T2, Noxa (human (endogenous in primary liver tissue)) (UniProt Q13794); assay: as above
T2 sequence: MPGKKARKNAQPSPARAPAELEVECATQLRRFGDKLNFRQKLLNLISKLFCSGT

binding [1]: binds
binding [2]: binds
Substance: SAG (sensitive to apoptosis gene) (from UniProt Q9UBF6 1-113)
